Paper PMC5325440
No constants are given. Whether binding was seen depends on the method and setting. In cells and extracts the contact can be indirect. Some binding calls cover weakened binding; strength is not graded here.

The chains behind the UniProt entries cited, without tags or fusion partners.
UniProt P63104: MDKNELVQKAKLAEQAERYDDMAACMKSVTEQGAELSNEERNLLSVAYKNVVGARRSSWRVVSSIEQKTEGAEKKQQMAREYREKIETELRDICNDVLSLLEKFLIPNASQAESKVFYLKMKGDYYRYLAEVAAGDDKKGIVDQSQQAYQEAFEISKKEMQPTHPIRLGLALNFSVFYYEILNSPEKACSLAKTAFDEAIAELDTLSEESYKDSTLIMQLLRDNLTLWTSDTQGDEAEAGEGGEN
UniProt Q8TEW0: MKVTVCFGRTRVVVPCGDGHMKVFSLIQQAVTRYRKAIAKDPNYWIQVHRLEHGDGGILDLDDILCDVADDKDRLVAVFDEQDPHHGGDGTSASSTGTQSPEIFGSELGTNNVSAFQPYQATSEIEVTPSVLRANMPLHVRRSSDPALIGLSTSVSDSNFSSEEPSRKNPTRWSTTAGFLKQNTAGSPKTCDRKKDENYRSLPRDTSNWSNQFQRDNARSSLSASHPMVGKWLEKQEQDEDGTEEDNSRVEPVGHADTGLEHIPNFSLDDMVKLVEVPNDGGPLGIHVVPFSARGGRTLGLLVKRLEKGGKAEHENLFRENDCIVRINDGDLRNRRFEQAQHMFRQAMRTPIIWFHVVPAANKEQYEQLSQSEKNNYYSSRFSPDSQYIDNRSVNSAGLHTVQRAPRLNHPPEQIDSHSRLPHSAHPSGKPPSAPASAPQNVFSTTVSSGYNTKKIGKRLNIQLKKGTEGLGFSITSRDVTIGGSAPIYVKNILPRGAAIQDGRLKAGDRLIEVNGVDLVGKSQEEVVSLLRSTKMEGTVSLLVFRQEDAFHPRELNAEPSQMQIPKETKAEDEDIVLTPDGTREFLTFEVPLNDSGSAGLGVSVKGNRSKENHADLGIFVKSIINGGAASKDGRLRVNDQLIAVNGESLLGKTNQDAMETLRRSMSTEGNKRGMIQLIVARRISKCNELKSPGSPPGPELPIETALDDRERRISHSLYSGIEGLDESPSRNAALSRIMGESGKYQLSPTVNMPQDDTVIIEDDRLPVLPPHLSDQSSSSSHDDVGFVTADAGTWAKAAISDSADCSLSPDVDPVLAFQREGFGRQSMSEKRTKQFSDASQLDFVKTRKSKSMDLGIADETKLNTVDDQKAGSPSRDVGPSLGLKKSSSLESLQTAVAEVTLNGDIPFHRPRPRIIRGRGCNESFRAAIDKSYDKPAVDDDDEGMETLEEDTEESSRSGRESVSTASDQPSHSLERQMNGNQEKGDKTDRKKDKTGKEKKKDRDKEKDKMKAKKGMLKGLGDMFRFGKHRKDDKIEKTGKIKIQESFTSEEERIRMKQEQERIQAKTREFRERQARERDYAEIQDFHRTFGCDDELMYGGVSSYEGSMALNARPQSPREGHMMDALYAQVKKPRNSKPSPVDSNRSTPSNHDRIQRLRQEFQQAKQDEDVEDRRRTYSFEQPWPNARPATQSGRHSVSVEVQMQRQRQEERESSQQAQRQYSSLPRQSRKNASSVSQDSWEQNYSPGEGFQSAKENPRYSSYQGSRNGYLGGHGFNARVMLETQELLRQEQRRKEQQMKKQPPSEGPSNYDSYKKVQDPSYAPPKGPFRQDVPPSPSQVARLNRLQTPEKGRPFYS
UniProt Q13009: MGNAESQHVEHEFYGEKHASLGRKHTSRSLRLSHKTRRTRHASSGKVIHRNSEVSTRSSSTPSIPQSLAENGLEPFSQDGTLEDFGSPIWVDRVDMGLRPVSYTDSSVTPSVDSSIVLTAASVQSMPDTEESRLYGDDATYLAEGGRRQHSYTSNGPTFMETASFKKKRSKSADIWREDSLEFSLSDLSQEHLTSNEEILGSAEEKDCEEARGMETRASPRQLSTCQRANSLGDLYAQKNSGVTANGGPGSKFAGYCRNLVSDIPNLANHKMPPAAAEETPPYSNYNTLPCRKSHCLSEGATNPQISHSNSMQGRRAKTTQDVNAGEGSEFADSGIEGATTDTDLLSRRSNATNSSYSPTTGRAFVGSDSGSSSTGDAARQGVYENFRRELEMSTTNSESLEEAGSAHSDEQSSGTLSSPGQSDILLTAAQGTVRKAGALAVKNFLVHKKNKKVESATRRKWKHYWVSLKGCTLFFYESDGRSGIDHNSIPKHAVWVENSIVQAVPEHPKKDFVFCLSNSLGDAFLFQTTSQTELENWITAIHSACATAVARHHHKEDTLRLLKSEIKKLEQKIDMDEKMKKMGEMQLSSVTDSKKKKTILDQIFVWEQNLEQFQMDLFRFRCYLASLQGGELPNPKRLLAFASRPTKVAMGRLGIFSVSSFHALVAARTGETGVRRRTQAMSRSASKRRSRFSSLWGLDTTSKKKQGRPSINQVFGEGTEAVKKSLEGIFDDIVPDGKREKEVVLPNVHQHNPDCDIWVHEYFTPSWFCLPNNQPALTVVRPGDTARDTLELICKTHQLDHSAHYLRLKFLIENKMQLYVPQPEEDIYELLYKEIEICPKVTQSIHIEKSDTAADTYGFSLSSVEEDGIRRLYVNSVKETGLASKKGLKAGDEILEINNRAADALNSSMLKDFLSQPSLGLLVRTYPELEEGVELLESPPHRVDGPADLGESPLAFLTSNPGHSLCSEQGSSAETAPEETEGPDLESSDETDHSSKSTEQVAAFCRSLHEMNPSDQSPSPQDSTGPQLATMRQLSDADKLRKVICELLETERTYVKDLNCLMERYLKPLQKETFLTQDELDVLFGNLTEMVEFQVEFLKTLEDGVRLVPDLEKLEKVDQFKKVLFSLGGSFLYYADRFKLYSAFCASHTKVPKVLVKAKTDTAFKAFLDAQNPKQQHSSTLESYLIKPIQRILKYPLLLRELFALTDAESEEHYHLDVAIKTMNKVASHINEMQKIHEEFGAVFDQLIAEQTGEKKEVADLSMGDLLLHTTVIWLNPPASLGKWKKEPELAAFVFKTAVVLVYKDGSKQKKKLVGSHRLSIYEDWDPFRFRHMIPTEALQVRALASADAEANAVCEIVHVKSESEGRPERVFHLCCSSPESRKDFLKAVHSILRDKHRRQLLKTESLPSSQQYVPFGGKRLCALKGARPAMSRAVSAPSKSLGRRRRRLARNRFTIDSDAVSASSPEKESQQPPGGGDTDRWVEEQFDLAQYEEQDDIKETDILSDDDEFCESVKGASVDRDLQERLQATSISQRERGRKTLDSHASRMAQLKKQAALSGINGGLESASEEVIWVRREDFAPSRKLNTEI

Assays:
[1] = molecular target: 14-3-3ζ protein (human (endogenous in A549 and H1299)) (UniProt P63104); experiment: co-IP; endogenous proteins; lysates of infected A549 and H1299 cells (control or Par3 shRNA) in IP buffer incubated with anti-Par3 or anti-14-3-3ζ antibody covalently coupled to protein A/G-agarose beads, 4°C overnight; Western blotting
GST-14-3-3ζ (human) = GST-14-3-3ζ (human) (UniProt P63104); experiment: pull-down; purified GST-14-3-3ζ and glutathione-agarose beads incubated with lysate supernatant of infected cells (control or Par3 shRNA), 4°C overnight; Western blotting; only the target purified

Row | binding [1] | binding (GST-14-3-3ζ (human)) | Substance
1 | binds | binds | Partitioning defective protein 3 (Par3) (from UniProt Q8TEW0 1-1356)
2 | binds | binds | Tiam1 (T lymphoma invasion and metastasis) (from UniProt Q13009 1-1591)
